# Data published in patent publication US20030036504 (published 2003).
# Experiment: Fmoc solid-phase peptide synthesis; 4-(2′-4′-dimethoxyphenyl)-Fmoc aminomethyl phenoxy acetamide norleucine MBHA resin; HBTU (Fast Moc)
# Details: whole synthesis, analytical RP-HPLC, C-18 column
substance,measurement,value
Ala Gly Glu Gly Thr Phe Thr Ser Asp Leu Ser Lys Gln Leu Glu Glu Glu Ala Val Arg Leu Phe Ile Glu Phe Leu Lys Asn-NH2,crude purity (method not given),about 75%
